Laboratory results taken from patent US20250213713A1, “Antibody-Drug Conjugates Targeting uPARAP Comprising Exatecan Derivatives” (ADCENDO APS, priority 2022, published 2025).
Results are given in words; binding and its absence hold for the method and conditions named. Some results given as binding are weak or reduced against the parent protein; the word gives no strength. For some of these results: Where a sequence is shown, tags or fusion partners need not be part of it.

Columns and labels:
[1] = biological target: T1, soluble full-length uPARAP (UniProt Q9UBG0 31-1414, limits assumed); assay: SPR, conclusion of Example 1
T1 construct: also called CD280
T1 sequence (looked up): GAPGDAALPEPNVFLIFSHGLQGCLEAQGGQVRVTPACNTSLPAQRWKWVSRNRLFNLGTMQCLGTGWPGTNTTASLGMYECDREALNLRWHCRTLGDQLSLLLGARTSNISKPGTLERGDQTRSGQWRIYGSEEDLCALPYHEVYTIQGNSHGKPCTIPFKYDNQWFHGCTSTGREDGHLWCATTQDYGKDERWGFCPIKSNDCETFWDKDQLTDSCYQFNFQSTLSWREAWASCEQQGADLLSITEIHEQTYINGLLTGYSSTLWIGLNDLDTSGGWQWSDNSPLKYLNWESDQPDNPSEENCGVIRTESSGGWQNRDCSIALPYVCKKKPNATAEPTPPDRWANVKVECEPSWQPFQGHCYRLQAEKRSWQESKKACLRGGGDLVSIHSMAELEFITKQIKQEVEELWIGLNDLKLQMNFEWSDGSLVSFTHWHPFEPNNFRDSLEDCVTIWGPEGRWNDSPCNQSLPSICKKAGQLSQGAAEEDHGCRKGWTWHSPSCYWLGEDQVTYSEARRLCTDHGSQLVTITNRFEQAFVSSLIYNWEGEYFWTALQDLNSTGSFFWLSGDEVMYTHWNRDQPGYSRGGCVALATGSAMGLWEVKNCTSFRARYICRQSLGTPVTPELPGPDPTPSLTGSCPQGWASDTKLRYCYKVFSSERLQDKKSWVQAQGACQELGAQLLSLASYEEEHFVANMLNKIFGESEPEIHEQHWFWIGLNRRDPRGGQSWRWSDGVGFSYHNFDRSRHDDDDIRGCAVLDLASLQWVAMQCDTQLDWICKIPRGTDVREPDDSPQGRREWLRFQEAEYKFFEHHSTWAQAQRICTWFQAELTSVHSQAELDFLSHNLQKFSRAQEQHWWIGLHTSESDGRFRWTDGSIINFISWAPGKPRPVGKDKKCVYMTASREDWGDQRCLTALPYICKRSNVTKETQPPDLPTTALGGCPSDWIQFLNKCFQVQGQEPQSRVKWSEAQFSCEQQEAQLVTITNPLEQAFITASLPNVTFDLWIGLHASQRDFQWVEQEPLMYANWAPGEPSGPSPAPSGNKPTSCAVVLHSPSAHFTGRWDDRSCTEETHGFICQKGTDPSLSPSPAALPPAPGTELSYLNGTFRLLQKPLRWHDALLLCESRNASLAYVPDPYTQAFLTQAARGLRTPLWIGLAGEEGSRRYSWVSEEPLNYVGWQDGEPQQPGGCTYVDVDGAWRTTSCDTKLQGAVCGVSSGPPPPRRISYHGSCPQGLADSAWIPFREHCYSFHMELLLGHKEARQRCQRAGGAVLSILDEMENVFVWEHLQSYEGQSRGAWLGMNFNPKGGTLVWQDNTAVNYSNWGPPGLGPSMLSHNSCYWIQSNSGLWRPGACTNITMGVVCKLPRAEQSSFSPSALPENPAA

[2] = biological target: T2, soluble recombinant protein consisting of the three N-terminal domains of uPARAP (CysR, FN-II and CTLD-1) (UniProt Q9UBG0); assay: BIAcore, truncated uPARAP construct (CysR, FN-II, CTLD-1) immobilized
T2 sequence (looked up): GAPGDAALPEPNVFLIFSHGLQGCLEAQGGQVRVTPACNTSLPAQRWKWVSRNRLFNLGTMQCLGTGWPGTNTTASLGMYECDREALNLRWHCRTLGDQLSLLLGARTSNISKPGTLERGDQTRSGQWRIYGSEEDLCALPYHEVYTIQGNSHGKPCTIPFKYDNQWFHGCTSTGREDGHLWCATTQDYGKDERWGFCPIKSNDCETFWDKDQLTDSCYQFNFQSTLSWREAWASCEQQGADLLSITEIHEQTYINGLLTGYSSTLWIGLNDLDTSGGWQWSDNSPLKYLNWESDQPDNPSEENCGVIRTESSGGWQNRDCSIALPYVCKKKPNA

[3] = biological target: T1, soluble full-length uPARAP; assay: I-125-labelled antibody (5 µl, slightly less than 40 ng per well) on SAOS-2 osteosarcoma cells for 1 h or 4 h. The cell surface fraction is released with trypsin/proteinase K, the pellet is the internalized fraction, and both are read on a gamma counter. The target is taken as uPARAP on the cells. [left panel]

B1: 980.2 LC0HC0 (chimeric antibody: variable domains of murine 9b7 fused to human IgG1 kappa constant regions) (antibody, V domains shown)
VH: QVHLVQSGPELKKPGETVKISCKASGYIFIDYGMHWVKQAPGKGLKWMGSINTKSGVSTYAAEFKGRFAFSLETSASTAYLQINNLKNEDTATYFCARPPYYSQYGSYWGQGTLVTVSA
VL: DIVMTQSQKFMSTSVGDRVSVTCKASQNVDTYVVWYQQKPGQSPKPLIYSASSRFSGVPDRFTGTGSGTDFTLTINNVQSEDLAEYFCQQYHNSPLTFGGGTKLEIKR
notes: Complete IgG1 kappa, expressed in CHO cells; captured by anti-human Fc in the SPR assay; also called parental antibody
B1 was tested, and the binding [1] was “binds”.

B2: murine monoclonal antibody 9b7 (antibody, V domains shown)
VH: B1 VH
VL: DIVMTQSQKFMSTSVGDRVSVTCKASQNVDTYVVWYQQKPGQSPKPLIYSASSRFSGVPDRFTGTGSGTDFTLTINNVQSEDLAEYFCQQYHNSPLTFGGGTKLEIK
B2 was tested, and the binding [2] was “binds”.

B3: 980.2 LC4HC3 (humanized 9b7 antibody) (antibody, human IgG1, kappa, V domains shown)
VH: QVQLVQSGAEVKKPGASVKVSCKASGYIFIDYGMHWVRQAPGQRLEWMGSINTKSGVSTYAAEFKGRVTIYSDTSASTAYMELSSLRSEDTAVYFCARPPYYSQYGSYWGQGTLVTVSS
VL: EIVMTQSPDSLAVSLGERATINCKASQNVDTYVVWYQQKPGQPPQPLIYSASSRFSGVPDRFSGSGSGTDFTLTISSLQAEDVAIYYCQQYHNSPLTFGGGTKVEIKR
notes: Complete IgG1 kappa, expressed in CHO cells; captured by anti-human Fc in the SPR assay
For B3, the binding [1] was “binds” and the binding [3] was “binds”.
